For this test, the target named is T1, Interleukin enhancer-binding factor 3 (ILF3) (human (endogenous in SW620)) (UniProt Q12906).
T1 sequence: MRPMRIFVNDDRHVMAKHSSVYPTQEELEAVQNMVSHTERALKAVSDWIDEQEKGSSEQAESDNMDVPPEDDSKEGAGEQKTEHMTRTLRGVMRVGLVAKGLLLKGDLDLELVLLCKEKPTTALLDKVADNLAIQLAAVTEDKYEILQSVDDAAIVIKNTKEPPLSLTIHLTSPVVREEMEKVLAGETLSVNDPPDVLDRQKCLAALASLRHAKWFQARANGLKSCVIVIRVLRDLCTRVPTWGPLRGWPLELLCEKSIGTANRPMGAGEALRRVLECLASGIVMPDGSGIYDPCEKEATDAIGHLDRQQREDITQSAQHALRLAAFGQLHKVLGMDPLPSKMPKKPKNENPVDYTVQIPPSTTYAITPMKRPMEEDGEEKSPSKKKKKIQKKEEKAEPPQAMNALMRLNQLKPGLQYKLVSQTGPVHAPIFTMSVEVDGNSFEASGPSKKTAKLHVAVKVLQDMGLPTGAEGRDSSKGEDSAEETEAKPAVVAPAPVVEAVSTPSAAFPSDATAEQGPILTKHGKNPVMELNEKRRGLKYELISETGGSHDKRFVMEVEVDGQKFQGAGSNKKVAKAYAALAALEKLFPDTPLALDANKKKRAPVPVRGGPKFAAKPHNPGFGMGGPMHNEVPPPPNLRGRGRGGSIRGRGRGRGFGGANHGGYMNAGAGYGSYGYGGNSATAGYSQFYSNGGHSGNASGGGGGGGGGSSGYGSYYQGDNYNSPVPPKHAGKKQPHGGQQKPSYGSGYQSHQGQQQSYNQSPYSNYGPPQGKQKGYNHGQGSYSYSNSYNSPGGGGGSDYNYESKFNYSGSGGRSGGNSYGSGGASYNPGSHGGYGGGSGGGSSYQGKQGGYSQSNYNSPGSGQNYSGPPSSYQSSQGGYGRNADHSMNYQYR
Kind of test: affinity purification with mass spectrometry; ILF3 pulled down from SW620 cells with or without TNF-α treatment, then LC-MS; 141 differential proteins intersected with 362 E3 ubiquitin ligases of the UbiNet database.

Results are given in words; binding and its absence hold for the method and conditions named. Binding seen in cells or lysates may run through a third protein. Here binding means that the protein was enriched with, or labelled near, the bait; the list need not be complete.

B1: E3 ligase TRIM17 (protein, UniProt Q9Y577 1-477)
chain: MEAVELARKLQEEATCSICLDYFTDPVMTTCGHNFCRACIQLSWEKARGKKGRRKRKGSFPCPECREMSPQRNLLPNRLLTKVAEMAQQHPGLQKQDLCQEHHEPLKLFCQKDQSPICVVCRESREHRLHRVLPAEEAVQGYKLKLEEDMEYLREQITRTGNLQAREEQSLAEWQGKVKERRERIVLEFEKMNLYLVEEEQRLLQALETEEEETASRLRESVACLDRQGHSLELLLLQLEERSTQGPLQMLQDMKEPLSRKNNVSVQCPEVAPPTRPRTVCRVPGQIEVLRGFLEDVVPDATSAYPYLLLYESRQRRYLGSSPEGSGFCSKDRFVAYPCAVGQTAFSSGRHYWEVGMNITGDALWALGVCRDNVSRKDRVPKCPENGFWVVQLSKGTKYLSTFSALTPVMLMEPPSHMGIFLDFEAGEVSFYSVSDGSHLHTYSQATFPGPLQPFFCLGAPKSGQMVISTVTMWVKG
Take B1: the binding entry is given as “binds”.

The record behind these values is publication PMC12284142.
